Among the data in paper PMC8755794 are binding values, retold here.

Chains of the proteins cited; added tags and fusions are not shown.
UniProt P42336: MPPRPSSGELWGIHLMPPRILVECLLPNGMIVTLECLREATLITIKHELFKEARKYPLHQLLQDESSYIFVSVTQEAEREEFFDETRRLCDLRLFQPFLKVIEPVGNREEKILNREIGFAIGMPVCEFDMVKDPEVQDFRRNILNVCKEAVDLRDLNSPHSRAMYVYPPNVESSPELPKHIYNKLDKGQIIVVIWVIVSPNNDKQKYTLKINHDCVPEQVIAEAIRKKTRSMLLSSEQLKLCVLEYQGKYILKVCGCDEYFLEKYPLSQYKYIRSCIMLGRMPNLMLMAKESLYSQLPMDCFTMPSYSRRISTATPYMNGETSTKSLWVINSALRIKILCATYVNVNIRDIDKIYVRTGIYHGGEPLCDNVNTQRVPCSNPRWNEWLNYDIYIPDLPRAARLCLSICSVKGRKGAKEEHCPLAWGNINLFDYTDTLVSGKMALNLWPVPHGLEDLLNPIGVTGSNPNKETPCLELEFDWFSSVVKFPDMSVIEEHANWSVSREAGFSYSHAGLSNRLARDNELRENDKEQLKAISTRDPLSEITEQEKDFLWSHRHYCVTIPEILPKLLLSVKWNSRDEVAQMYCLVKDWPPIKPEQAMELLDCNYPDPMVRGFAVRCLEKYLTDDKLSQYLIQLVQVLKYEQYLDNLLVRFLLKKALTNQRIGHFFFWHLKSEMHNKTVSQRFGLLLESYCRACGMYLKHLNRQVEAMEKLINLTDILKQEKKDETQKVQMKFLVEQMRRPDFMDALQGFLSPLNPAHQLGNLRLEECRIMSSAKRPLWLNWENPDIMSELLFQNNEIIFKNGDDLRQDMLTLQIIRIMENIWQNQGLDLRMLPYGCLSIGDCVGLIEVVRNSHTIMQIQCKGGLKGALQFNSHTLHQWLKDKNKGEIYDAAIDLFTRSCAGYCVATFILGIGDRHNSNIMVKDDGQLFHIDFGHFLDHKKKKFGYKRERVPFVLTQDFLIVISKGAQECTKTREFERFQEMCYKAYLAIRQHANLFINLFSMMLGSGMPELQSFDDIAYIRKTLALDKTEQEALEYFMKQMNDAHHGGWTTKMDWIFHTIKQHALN
UniProt P42338: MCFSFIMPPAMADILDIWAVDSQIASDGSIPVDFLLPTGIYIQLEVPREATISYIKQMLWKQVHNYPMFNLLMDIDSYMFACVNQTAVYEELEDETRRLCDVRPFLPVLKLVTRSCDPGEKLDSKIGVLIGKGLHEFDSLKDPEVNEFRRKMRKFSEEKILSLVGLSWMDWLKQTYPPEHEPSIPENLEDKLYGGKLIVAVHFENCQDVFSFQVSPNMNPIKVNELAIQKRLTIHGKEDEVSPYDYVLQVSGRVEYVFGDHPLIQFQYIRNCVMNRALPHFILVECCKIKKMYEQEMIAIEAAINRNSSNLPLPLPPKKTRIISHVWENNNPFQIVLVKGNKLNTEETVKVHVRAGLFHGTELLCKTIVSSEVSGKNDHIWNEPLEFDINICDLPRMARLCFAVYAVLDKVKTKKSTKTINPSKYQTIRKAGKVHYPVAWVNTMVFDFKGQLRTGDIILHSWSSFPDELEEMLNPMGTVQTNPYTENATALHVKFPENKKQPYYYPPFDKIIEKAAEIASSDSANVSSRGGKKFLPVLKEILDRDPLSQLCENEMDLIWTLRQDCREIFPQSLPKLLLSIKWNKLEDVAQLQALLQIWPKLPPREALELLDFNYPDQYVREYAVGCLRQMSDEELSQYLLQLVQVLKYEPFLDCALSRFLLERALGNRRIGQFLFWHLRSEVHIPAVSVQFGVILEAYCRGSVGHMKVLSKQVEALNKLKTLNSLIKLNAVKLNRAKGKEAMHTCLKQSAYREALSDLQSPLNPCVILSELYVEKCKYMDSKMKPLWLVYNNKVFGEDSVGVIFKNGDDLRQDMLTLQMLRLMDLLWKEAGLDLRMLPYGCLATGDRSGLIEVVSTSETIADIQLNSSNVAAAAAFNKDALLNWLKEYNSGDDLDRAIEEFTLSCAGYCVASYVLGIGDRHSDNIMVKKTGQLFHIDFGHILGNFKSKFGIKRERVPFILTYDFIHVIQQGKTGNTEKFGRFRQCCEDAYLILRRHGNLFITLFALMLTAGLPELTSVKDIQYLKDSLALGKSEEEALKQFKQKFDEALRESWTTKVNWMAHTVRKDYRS
UniProt P17302: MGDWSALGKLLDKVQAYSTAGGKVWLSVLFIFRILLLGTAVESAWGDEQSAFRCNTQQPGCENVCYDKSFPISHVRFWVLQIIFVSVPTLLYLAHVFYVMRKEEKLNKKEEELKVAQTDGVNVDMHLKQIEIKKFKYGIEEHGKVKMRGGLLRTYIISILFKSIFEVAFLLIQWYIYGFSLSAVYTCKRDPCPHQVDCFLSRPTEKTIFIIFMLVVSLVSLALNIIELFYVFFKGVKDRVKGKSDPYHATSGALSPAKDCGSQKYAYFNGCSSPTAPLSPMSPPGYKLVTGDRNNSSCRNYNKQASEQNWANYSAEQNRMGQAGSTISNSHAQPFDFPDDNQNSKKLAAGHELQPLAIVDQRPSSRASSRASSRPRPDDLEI

No constants are given. Whether binding was seen depends on the method and setting. Binding seen in cells or lysates may run through a third protein. Some results given as binding are weak or reduced against the parent protein; the word gives no strength.

What all share (assay): co-IP; endogenous proteins in U87MG cell lysate; lysis buffer 20 mM HEPES pH 6.8, 140 mM NaCl, 2.5 mM MgCl2, 2.5 mM CaCl2, 1% NP40, 0.5% sodium deoxycholate; primary antibodies overnight at 4 °C, then Protein G Dynabeads; rabbit IgG as control
Test [1] concerns the target PI3K catalytic subunit α (human (endogenous in U87MG)) (UniProt P42336).
Test [2] has as its target PI3K catalytic subunit β (human (endogenous in U87MG)) (UniProt P42338).
For test [3], the target named is T1, PI3K catalytic subunit δ (human (endogenous in U87MG)) (UniProt O00329).
T1 sequence: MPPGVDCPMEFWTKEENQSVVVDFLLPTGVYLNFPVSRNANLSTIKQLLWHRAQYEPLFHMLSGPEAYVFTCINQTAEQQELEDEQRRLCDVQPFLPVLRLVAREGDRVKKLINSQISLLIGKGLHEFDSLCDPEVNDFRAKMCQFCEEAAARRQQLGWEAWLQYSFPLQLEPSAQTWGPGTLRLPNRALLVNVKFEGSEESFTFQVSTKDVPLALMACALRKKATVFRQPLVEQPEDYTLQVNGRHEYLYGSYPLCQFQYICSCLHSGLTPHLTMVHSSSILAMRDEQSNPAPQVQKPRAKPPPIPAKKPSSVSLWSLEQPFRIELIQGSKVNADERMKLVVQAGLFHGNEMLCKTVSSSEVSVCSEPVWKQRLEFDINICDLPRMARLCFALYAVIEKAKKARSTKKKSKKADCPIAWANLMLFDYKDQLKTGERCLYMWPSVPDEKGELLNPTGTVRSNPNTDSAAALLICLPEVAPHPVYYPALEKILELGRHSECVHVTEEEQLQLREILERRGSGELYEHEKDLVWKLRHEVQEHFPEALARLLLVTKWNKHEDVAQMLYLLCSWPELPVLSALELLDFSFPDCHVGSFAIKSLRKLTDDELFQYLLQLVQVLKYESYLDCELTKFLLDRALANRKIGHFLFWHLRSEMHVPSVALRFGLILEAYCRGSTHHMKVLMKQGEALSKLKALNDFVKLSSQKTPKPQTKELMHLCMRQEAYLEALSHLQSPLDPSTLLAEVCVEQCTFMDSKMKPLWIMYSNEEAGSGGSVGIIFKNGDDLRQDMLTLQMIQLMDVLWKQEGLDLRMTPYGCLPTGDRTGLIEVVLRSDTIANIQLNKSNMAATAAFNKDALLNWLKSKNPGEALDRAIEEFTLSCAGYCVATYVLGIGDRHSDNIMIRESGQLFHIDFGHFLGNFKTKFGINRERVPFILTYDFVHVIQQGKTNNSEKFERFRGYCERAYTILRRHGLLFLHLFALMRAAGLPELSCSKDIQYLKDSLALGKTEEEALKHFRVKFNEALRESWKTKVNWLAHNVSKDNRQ

As to connexin 43 (from UniProt P17302 1-382), the binding entry is “no binding” in test [1], “binds” in test [2] and “no binding” in test [3].
